Results published in PMC314469, “Protein Interaction Networks by Proteome Peptide Scanning” (PLoS Biology, 2004).
These are yes or no findings as the source states them, for the method shown. In cells and extracts the contact can be indirect. Some binding calls cover weakened binding; strength is not graded here. For part of these data: Sequences can lack the tags named with a protein. Each block holds one binder with its values, some of them ahead of it.

By UniProt entry, the sequences of proteins in these tests, tags left out.
UniProt P29311: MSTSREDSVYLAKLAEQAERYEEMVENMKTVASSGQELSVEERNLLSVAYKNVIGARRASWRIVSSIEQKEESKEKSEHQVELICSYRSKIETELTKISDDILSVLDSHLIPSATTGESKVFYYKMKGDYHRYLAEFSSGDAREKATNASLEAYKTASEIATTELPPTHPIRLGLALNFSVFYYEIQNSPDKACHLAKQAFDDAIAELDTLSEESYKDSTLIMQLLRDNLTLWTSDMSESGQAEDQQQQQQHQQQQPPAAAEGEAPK

How the values were obtained:
[1] = biological target: T1, GST-Abp1 SH3 domain (S. cerevisiae) (UniProt P15891); experiment: pull-down; 100 μg GST–Abp1SH3 bound to glutathione–sepharose incubated 2 h at 4°C with extract of yeast expressing the TAP-tagged protein, IPP-150 buffer (10 mM Tris–HCl pH 8.0, 150 mM NaCl, 0.1% NP-40); blot with PAP antibody; only the target purified
T1 sequence: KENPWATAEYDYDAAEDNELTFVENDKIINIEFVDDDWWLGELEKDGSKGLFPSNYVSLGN

[2] = biological target: T2, TAP-tagged Scp1 (S. cerevisiae) (UniProt Q08873); experiment: co-IP; extract of yeast expressing the TAP-tagged protein on IgG–sepharose 2 h at 4°C, washed in IPP-150, released with TEV protease; blot with anti-Abp1 antibody
T2 sequence: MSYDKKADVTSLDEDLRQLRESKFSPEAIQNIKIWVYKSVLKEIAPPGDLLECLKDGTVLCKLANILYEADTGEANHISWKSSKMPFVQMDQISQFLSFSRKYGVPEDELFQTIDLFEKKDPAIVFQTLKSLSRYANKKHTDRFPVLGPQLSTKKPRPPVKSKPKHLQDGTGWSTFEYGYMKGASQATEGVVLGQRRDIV

[3] = biological target: T3, TAP-tagged Prk1 (S. cerevisiae) (UniProt P40494); experiment: as above
T3 sequence: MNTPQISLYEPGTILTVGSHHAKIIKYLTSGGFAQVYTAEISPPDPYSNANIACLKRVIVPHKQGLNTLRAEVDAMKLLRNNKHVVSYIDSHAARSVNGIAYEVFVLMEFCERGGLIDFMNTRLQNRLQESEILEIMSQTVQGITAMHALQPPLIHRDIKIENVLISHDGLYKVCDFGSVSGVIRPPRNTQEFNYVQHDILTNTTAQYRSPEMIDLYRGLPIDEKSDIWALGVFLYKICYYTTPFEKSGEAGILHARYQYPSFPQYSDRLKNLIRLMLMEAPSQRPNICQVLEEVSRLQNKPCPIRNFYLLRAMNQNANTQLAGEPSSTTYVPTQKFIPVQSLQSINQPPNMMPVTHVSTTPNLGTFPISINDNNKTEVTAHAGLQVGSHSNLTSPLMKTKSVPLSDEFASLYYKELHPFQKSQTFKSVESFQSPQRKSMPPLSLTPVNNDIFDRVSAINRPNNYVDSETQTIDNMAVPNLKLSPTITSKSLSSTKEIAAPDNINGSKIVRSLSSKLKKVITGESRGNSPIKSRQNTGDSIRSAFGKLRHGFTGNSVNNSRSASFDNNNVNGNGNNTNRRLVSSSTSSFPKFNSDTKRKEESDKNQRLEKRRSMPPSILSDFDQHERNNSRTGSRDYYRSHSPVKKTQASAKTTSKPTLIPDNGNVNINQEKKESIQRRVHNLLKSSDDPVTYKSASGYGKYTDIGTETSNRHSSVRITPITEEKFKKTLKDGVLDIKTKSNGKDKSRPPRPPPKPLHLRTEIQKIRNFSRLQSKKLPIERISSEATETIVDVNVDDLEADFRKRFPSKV

[4] = biological target: T4, TAP-tagged Yir003w (S. cerevisiae) (UniProt P40563); experiment: as above
T4 sequence: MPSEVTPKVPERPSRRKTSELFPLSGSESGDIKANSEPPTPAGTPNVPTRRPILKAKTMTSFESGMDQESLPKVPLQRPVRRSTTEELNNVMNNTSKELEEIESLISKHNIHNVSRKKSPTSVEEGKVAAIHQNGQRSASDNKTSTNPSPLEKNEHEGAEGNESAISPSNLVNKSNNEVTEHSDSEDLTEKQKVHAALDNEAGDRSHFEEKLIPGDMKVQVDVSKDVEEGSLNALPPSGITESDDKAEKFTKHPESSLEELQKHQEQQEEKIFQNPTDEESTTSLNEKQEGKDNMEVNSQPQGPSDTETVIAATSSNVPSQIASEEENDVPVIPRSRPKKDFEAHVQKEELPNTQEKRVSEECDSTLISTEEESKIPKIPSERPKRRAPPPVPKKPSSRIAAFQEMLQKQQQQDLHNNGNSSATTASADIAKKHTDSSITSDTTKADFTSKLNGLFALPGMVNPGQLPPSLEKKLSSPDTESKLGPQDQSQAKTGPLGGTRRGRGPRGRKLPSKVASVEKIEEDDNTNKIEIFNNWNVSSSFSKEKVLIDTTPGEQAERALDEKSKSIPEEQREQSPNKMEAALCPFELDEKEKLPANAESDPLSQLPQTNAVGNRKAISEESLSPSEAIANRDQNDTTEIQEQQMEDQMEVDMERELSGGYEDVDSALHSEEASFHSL

[5] = biological target: T5, TAP-tagged Ynl094w (S. cerevisiae) (UniProt P53933); experiment: as above
T5 sequence: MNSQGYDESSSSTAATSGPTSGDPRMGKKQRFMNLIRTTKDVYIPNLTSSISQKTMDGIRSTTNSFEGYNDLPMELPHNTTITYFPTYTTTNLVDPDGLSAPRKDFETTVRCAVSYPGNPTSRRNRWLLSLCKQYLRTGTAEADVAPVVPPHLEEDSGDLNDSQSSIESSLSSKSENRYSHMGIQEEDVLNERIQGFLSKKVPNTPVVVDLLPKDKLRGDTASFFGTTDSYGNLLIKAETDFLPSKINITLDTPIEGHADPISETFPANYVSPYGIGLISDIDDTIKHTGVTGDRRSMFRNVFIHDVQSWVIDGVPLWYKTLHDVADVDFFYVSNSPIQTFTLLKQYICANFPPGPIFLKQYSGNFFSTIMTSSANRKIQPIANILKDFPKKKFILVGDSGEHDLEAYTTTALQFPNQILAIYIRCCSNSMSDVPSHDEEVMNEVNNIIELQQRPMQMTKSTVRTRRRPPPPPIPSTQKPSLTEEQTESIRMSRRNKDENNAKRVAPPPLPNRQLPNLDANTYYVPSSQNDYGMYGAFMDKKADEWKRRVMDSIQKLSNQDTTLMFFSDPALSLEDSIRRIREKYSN

[6] = biological target: TAP-tagged Bmh1 (S. cerevisiae) (UniProt P29311); experiment: as above
[7] = biological target: T6, GST-Abp1 SH3 domain (S. cerevisiae), P15891; experiment: pull-down; 100 μg GST–Abp1SH3 bound to glutathione–sepharose incubated 2 h at 4°C with extract of yeast expressing the TAP-tagged protein, IPP-150 buffer (10 mM Tris–HCl pH 8.0, 150 mM NaCl, 0.1% NP-40); blot with PAP antibody; only the target purified; conditions: remark: other sources report otherwise
T6 chain: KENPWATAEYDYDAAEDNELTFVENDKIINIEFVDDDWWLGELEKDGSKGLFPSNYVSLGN

- binding [1]: binds
B1: TAP-tagged Prk1 (protein, UniProt P40494 1-810)
chain: MNTPQISLYEPGTILTVGSHHAKIIKYLTSGGFAQVYTAEISPPDPYSNANIACLKRVIVPHKQGLNTLRAEVDAMKLLRNNKHVVSYIDSHAARSVNGIAYEVFVLMEFCERGGLIDFMNTRLQNRLQESEILEIMSQTVQGITAMHALQPPLIHRDIKIENVLISHDGLYKVCDFGSVSGVIRPPRNTQEFNYVQHDILTNTTAQYRSPEMIDLYRGLPIDEKSDIWALGVFLYKICYYTTPFEKSGEAGILHARYQYPSFPQYSDRLKNLIRLMLMEAPSQRPNICQVLEEVSRLQNKPCPIRNFYLLRAMNQNANTQLAGEPSSTTYVPTQKFIPVQSLQSINQPPNMMPVTHVSTTPNLGTFPISINDNNKTEVTAHAGLQVGSHSNLTSPLMKTKSVPLSDEFASLYYKELHPFQKSQTFKSVESFQSPQRKSMPPLSLTPVNNDIFDRVSAINRPNNYVDSETQTIDNMAVPNLKLSPTITSKSLSSTKEIAAPDNINGSKIVRSLSSKLKKVITGESRGNSPIKSRQNTGDSIRSAFGKLRHGFTGNSVNNSRSASFDNNNVNGNGNNTNRRLVSSSTSSFPKFNSDTKRKEESDKNQRLEKRRSMPPSILSDFDQHERNNSRTGSRDYYRSHSPVKKTQASAKTTSKPTLIPDNGNVNINQEKKESIQRRVHNLLKSSDDPVTYKSASGYGKYTDIGTETSNRHSSVRITPITEEKFKKTLKDGVLDIKTKSNGKDKSRPPRPPPKPLHLRTEIQKIRNFSRLQSKKLPIERISSEATETIVDVNVDDLEADFRKRFPSKV

- binding [1]: binds
B2: TAP-tagged Scp1 (protein, UniProt Q08873 1-200)
chain: MSYDKKADVTSLDEDLRQLRESKFSPEAIQNIKIWVYKSVLKEIAPPGDLLECLKDGTVLCKLANILYEADTGEANHISWKSSKMPFVQMDQISQFLSFSRKYGVPEDELFQTIDLFEKKDPAIVFQTLKSLSRYANKKHTDRFPVLGPQLSTKKPRPPVKSKPKHLQDGTGWSTFEYGYMKGASQATEGVVLGQRRDIV

- binding [2]: binds
- binding [3]: binds
- binding [4]: binds
- binding [5]: binds
- binding [6]: no binding
B3: Abp1 (protein, UniProt P15891 1-592)
chain: MALEPIDYTTHSREIDAEYLKIVRGSDPDTTWLIISPNAKKEYEPESTGSSFHDFLQLFDETKVQYGLARVSPPGSDVEKIIIIGWCPDSAPLKTRASFAANFAAVANNLFKGYHVQVTARDEDDLDENELLMKISNAAGARYSIQTSSKQQGKASTPPVKKSFTPSKSPAPVSKKEPVKTPSPAPAAKISSRVNDNNDDDDWNEPELKERDFDQAPLKPNQSSYKPIGKIDLQKVIAEEKAKEDPRLVQKPTAAGSKIDPSSDIANLKNESKLKRDSEFNSFLGTTKPPSMTESSLKNDDDKVIKGFRNEKSPAQLWAERKAKQNSGNAETKAEAPKPEVPEDEPEGEPDVKDLKSKFEGLAASEKEEEEMENKFAPPPKKSEPTIISPKPFSKPQEPVKAEEAEQPKTDYKKIGNPLPGMHIEADNEEEPEENDDDWDDDEDEAAQPPLPSRNVASGAPVQKEEPEQEEIAPSLPSRNSIPAPKQEEAPEQAPEEEIEEEAEEAAPQLPSRSSAAPPPPPRRATPEKKPKENPWATAEYDYDAAEDNELTFVENDKIINIEFVDDDWWLGELEKDGSKGLFPSNYVSLGN

- binding [1]: binds
B4: TAP-tagged Ynl094w (protein, UniProt P53933 1-587)
chain: MNSQGYDESSSSTAATSGPTSGDPRMGKKQRFMNLIRTTKDVYIPNLTSSISQKTMDGIRSTTNSFEGYNDLPMELPHNTTITYFPTYTTTNLVDPDGLSAPRKDFETTVRCAVSYPGNPTSRRNRWLLSLCKQYLRTGTAEADVAPVVPPHLEEDSGDLNDSQSSIESSLSSKSENRYSHMGIQEEDVLNERIQGFLSKKVPNTPVVVDLLPKDKLRGDTASFFGTTDSYGNLLIKAETDFLPSKINITLDTPIEGHADPISETFPANYVSPYGIGLISDIDDTIKHTGVTGDRRSMFRNVFIHDVQSWVIDGVPLWYKTLHDVADVDFFYVSNSPIQTFTLLKQYICANFPPGPIFLKQYSGNFFSTIMTSSANRKIQPIANILKDFPKKKFILVGDSGEHDLEAYTTTALQFPNQILAIYIRCCSNSMSDVPSHDEEVMNEVNNIIELQQRPMQMTKSTVRTRRRPPPPPIPSTQKPSLTEEQTESIRMSRRNKDENNAKRVAPPPLPNRQLPNLDANTYYVPSSQNDYGMYGAFMDKKADEWKRRVMDSIQKLSNQDTTLMFFSDPALSLEDSIRRIREKYSN

- binding [7]: binds
B5: TAP-tagged Yir003w, P40563 1-679 (protein)
chain: MPSEVTPKVPERPSRRKTSELFPLSGSESGDIKANSEPPTPAGTPNVPTRRPILKAKTMTSFESGMDQESLPKVPLQRPVRRSTTEELNNVMNNTSKELEEIESLISKHNIHNVSRKKSPTSVEEGKVAAIHQNGQRSASDNKTSTNPSPLEKNEHEGAEGNESAISPSNLVNKSNNEVTEHSDSEDLTEKQKVHAALDNEAGDRSHFEEKLIPGDMKVQVDVSKDVEEGSLNALPPSGITESDDKAEKFTKHPESSLEELQKHQEQQEEKIFQNPTDEESTTSLNEKQEGKDNMEVNSQPQGPSDTETVIAATSSNVPSQIASEEENDVPVIPRSRPKKDFEAHVQKEELPNTQEKRVSEECDSTLISTEEESKIPKIPSERPKRRAPPPVPKKPSSRIAAFQEMLQKQQQQDLHNNGNSSATTASADIAKKHTDSSITSDTTKADFTSKLNGLFALPGMVNPGQLPPSLEKKLSSPDTESKLGPQDQSQAKTGPLGGTRRGRGPRGRKLPSKVASVEKIEEDDNTNKIEIFNNWNVSSSFSKEKVLIDTTPGEQAERALDEKSKSIPEEQREQSPNKMEAALCPFELDEKEKLPANAESDPLSQLPQTNAVGNRKAISEESLSPSEAIANRDQNDTTEIQEQQMEDQMEVDMERELSGGYEDVDSALHSEEASFHSL
